# The list shows a part of the results. Shown are side measurements of this screen, not its main read-out; they come without a call. The list favours compounds with an active or inconclusive main result. Words in brackets tell the shape of the fitted curve; partial curves, single points and poor fits give uncertain potencies.
# Experiment: IkB Signaling
# Details: ABC-DLBCL IkBa-CBG/CBR dual luciferase ratio (green luciferase fused to IkBa over red control in OCI-Ly3 lymphoma cells), 4 h
# Outline: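 Curves were fitted separately to fusion (green), unfused (red) and ratio luminescence, then classed by r2, magnitude and activity. Cells: OCI-Ly3, 4 h compound plus doxycycline at 37C; 10 uM MG-132 defined full response.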
# [1] = measured here: control luc red channel unless noted
# [2] = measured here: IkB-luc green channel
# [3] = measured here: control luc red channel
compound,measurement,setting,value
CCOC(=O)c1c(C)oc2nc(C)nc(N3CCN(c4ccc(OC)cc4)CC3)c12,AC50,[1],"20 µM [falling, partial curve]"
CCNC(=O)C1CCN(Cc2cc3ccccc3n2Cc2ccc(C)cc2)CC1,AC50,[1],"39.8 µM [falling, single point]"
COC(=O)CN1C(C(=O)c2ccccc2)=C(OC(=O)c2ccc(C)cc2)c2ccccc2S1(=O)=O,AC50,[1],"20 µM [falling, single point]"
Cc1nn(-c2ccccc2)c2nc(N)c(C#N)c(-c3ccc(F)cc3)c12,AC50,[1],"20 µM [falling, partial curve]"
COc1ccccc1-n1c(CNC(=O)COc2ccccc2)n[nH]c1=S,AC50,[1],"0.794 µM [falling, full curve]"
Cc1oc(-c2cccc(Cl)c2)nc1CSCC(=O)NCc1ccccc1Cl,AC50,[1],"25.1 µM [falling, single point]"
COc1ccc(Cl)cc1C1CC(=O)Nc2cc3c(cc21)OCCO3 (stereo not given),AC50,[2],"3.16 µM [rising, partial curve]"
same,AC50,[3],"39.8 µM [falling, single point]"
CCc1cccc(NC(=O)Cn2ncc3c([nH]c4ccc(C)cc43)c2=O)c1,AC50,[1],"6.31 µM [rising, full curve]"
CCOc1ccccc1NC(=O)CCc1c(C)nc2c3cccnc3nn2c1C,AC50,[1],"6.31 µM [falling, partial curve]"
O=C(NCc1ccc(F)cc1)c1ccc(CS(=O)(=O)Cc2ccccc2F)o1,AC50,[1],"20 µM [falling, partial curve]"
COc1ccc(C(=O)Nc2ccc(Cl)cn2)cc1Cl,AC50,[1],"20 µM [falling, single point]"
COc1cccc(C(=O)NCCc2csc(-c3cccc(F)c3)n2)c1OC,AC50,[1],"25.1 µM [falling, single point]"
CCc1cccc(NC(=O)CN(c2ccc(C)cc2)S(=O)(=O)c2cccs2)c1,AC50,[1],"10 µM [falling, partial curve]"
Cc1csc(NC(=O)c2ccoc2C)n1,AC50,[1],"12.6 µM [falling, partial curve]"
COc1ccc(-c2nc3ccccc3s2)cc1NC(=O)COc1cccc(C)c1,AC50,[1],"0.398 µM [rising, single point]"
COc1c(C)cc(Br)cc1C(=O)Nc1cccc(-c2nc3ncccc3o2)c1,AC50,[1],"3.16 µM [falling, full curve, poor fit]"
O=C(Cn1c(=O)n(CCCS(=O)(=O)C2CCCCC2)c(=O)c2ccccc21)Nc1ccc(F)c(Cl)c1,AC50,[1],"6.31 µM [falling, partial curve]"
CC(C)(C)n1nnnc1C(c1cccs1)N(Cc1ccccc1)Cc1ccco1 (stereo not given),AC50,[1],"25.1 µM [falling, partial curve]"
O=C(c1cnc(N2CCCCC2)c2ccccc12)N1CCN(c2cccc(Cl)c2)CC1,AC50,[1],"39.8 µM [falling, single point]"
Cc1cc(C)cc(NC(=O)CCCn2c(=O)c3cccn3c3ccccc32)c1,AC50,[1],"31.6 µM [falling, single point]"
O=C(COc1ccccc1[N+](=O)[O-])N1CCC(c2nc3ccccc3o2)CC1,AC50,[1],"20 µM [falling, single point]"
Cc1c(CC(=O)NCCc2ccccc2F)c(=O)oc2cc(O)c(Cl)cc12,AC50,[1],"31.6 µM [falling, single point]"
Cc1ccc(-n2ncc3c(N(CC(C)C)CC(C)C)ncnc32)c(C)c1,AC50,[1],"31.6 µM [falling, single point]"
COC(=O)c1[nH]c2cccc(OC)c2c1NC(=O)CN1CC2(C)CC1CC(C)(C)C2 (stereo not given),AC50,[1],"15.8 µM [falling, partial curve]"
O=C(CN1CCC(n2nnc3ccccc32)CC1)NCc1cccs1,AC50,[1],"12.6 µM [falling, partial curve]"
Cc1cccc(NS(=O)(=O)c2cc(C(=O)OCC(=O)Nc3cc(C)on3)ccc2C)c1,AC50,[1],"25.1 µM [falling, partial curve]"
CC(C)S(=O)(=O)c1oc(-c2cccs2)nc1S(=O)(=O)c1ccc(F)cc1,AC50,[1],"3.16 µM [falling, partial curve]"
CCN(CCCNC(=O)c1cc(Nc2ccc(OC)cc2OC)nc2ccccc12)c1cccc(C)c1,AC50,[1],"1.58 µM [falling, single point]"
CCOc1cccc(NC(=O)C2CC(=O)N(C)C(=Nc3ccc(F)cc3)S2)c1 (stereo not given),AC50,[1],"25.1 µM [falling, partial curve]"
O=C(CSc1nc2ccccc2[nH]1)Nc1ccc2c(c1)OCCO2,AC50,[1],"25.1 µM [falling, partial curve]"
CCOc1ccccc1NC(=O)CN1C(=O)COc2ccc(S(=O)(=O)N3CCCCC3)cc21,AC50,[1],"25.1 µM [falling, single point]"
O=C(c1ccc(Br)s1)N(Cc1cccnc1)c1nc2ccc(F)cc2s1,AC50,[1],"2.51 µM [falling, full curve]"
CCN1C(=O)CC(C(=O)Nc2ccc(F)cc2)SC1=Nc1cccc(OC)c1 (stereo not given),AC50,[1],"20 µM [falling, partial curve]"
Cn1cc(C(c2ccccc2)c2ccc(Cl)s2)c2ccccc21 (stereo not given),AC50,[1],"25.1 µM [falling, single point]"
CCn1c(=O)n(CC(=O)N(C)Cc2ccccc2)c(=O)c2ccccc21,AC50,[1],"5.01 µM [falling, partial curve]"
CCc1ccc2oc(-c3ccc(N)cc3)nc2c1,AC50,[1],"0.02 µM [falling, full curve]"
CCc1ccccc1NC(=O)c1cc2nc(-c3ccc(OC)c(OC)c3)cc(C(F)(F)F)n2n1,AC50,[1],"2 µM [rising, full curve, poor fit]"
CCOCCCNC(=O)c1c(NC(=O)c2cc(=O)c3ccccc3o2)sc2c1CCC2,AC50,[1],"15.8 µM [falling, single point]"
COc1ccccc1N1CCN(C(=O)Nc2cn(CC(C)C)c(=O)c3ccccc23)CC1,AC50,[1],"39.8 µM [falling, single point]"
Cc1occc1-c1nnc(SCC(=O)Nc2ccc(F)cc2)n1Cc1ccccc1,AC50,[1],"3.16 µM [falling, partial curve]"
CC(C)C(=O)Nc1cccc(C(=O)Nc2nnc(CC(C)(C)C)s2)c1,AC50,[1],"39.8 µM [falling, single point]"
CS(=O)(=O)Nc1cccc(-c2nc(Nc3ccc(F)cc3)c3ccccc3n2)c1,AC50,[2],"3.16 µM [falling, partial curve]"
same,AC50,[3],"3.98 µM [falling, partial curve]"
Cc1ccc(C)c(N2CCN(C(=O)CC3Sc4ccccc4NC3=O)CC2)c1 (stereo not given),AC50,[1],"15.8 µM [falling, partial curve]"
CC(C)c1ccc(NC(=O)Nc2csc3c2CCCC3)cc1,AC50,[1],"5.01 µM [falling, full curve, poor fit]"
CCCCN(C)CC(O)Cn1cc(/C=C/C(=O)c2ccc(C)cc2)c2ccccc21 (stereo not given),AC50,[1],"12.6 µM [falling, partial curve]"
COc1ccc(NC(=O)c2c(NCc3cccs3)sc3c2CCCC3)cc1,AC50,[1],"3.16 µM [falling, partial curve]"
Cc1cccc(N2CCN(C(=O)C3CCCN(S(=O)(=O)c4ccc5c(c4)oc(=O)n5C)C3)CC2)c1C (stereo not given),AC50,[1],"15.8 µM [falling, partial curve]"
CCC(C)N1CC(O)=C(c2nc3ccccc3[nH]2)C1=N (stereo not given),AC50,[1],"31.6 µM [rising, single point] [measured here: IkB-luc green channel]"
Cc1ccc(-n2ncc(C(=O)NCc3cccs3)c2C2CCN(C(=O)OC(C)(C)C)CC2)cc1,AC50,[1],"31.6 µM [falling, partial curve]"
COc1ccccc1NC(=O)C(C)Sc1nnc2ccc3ccccc3n12 (stereo not given),AC50,[1],"0.158 µM [falling, full curve, poor fit]"
CCc1cccc2c(-c3ccccc3)nc(SCC(=O)Nc3ccccc3OC)nc12,AC50,[1],"10 µM [falling, partial curve]"
Nc1c(C(=O)NCCN2CCOCC2)c2nc3ccccc3nc2n1CCc1ccccc1F,AC50,[1],"15.8 µM [falling, partial curve]"
COc1ccc(OCC(=O)N2CCC(c3nc4ccccc4s3)CC2)cc1,AC50,[1],"15.8 µM [falling, partial curve]"
O=C(NC1CCCC1)c1ccc(CSc2nc3ccncc3n2Cc2cccc(F)c2)cc1,AC50,[1],"25.1 µM [falling, single point]"
O=C(OCCCCN1C(=O)c2ccccc2C1=O)c1n[nH]c2ccccc12,AC50,[1],"10 µM [falling, partial curve]"
CCn1ccc2cc(S(=O)(=O)N3CCC(C(=O)NCCc4ccccc4Cl)CC3)ccc21,AC50,[1],"10 µM [falling, full curve]"
CCc1ccc(C(=O)c2cnc3ccc(F)cc3c2S(=O)(=O)c2ccccc2)cc1,AC50,[1],"1.58 µM [falling, partial curve]"
COc1ccccc1Cn1cc(C(=O)c2ccc(Cl)cc2)c(=O)c2ccccc21,AC50,[1],"31.6 µM [falling, single point]"
CCN(CC)C(=O)C1CCCN(c2ncnc3c2cnn3-c2cccc(C)c2)C1 (stereo not given),AC50,[1],"25.1 µM [falling, partial curve]"
Brc1ccc(-c2csc(/N=C/N3CCOCC3)n2)cc1,AC50,[1],"39.8 µM [falling, single point]"
COc1ccc(C(=O)N(Cc2cc(OC)c(OC)c(OC)c2)c2ccccn2)cc1,AC50,[1],"0.0794 µM [falling, full curve, poor fit]"
O=C(Cn1c(=O)nc(-c2ccccc2)c2ccccc21)NCCc1ccc(Cl)cc1,AC50,[1],"20 µM [falling, single point]"
CC1Cc2cc(S(=O)(=O)CCC(=O)NCc3ccc(Cl)cc3)ccc2N1C(=O)C1CC1 (stereo not given),AC50,[1],"25.1 µM [falling, single point]"

# Reprinted at random: 3 entries already listed
compound,measurement,setting,value
Cc1occc1-c1nnc(SCC(=O)Nc2ccc(F)cc2)n1Cc1ccccc1,AC50,[1],"3.16 µM [falling, partial curve]"
CCC(C)N1CC(O)=C(c2nc3ccccc3[nH]2)C1=N (stereo not given),AC50,[1],"31.6 µM [rising, single point] [measured here: IkB-luc green channel]"
Nc1c(C(=O)NCCN2CCOCC2)c2nc3ccccc3nc2n1CCc1ccccc1F,AC50,[1],"15.8 µM [falling, partial curve]"

# Part of the list above, tab-delimited.
compound	measurement	setting	value
Cc1ccc(-n2ncc(C(=O)NCc3cccs3)c2C2CCN(C(=O)OC(C)(C)C)CC2)cc1	AC50	[1]	31.6 µM [falling, partial curve]
COc1ccccc1NC(=O)C(C)Sc1nnc2ccc3ccccc3n12 (stereo not given)	AC50	[1]	0.158 µM [falling, full curve, poor fit]
